# Laboratory results from PubChem BioAssay AID687031 (Broad Institute, 2013).
# Among all 1,400 compounds or so, about 50 (4%) were called active.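 How the source made its calls: active means fitted curve reaches 30% CPE protection at or below the top valid dose, with every test run called active; inconclusive means test runs disagree, some active and some not; inactive means every test run inactive, including effects in the wrong direction.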 The list shows a part of the results. Results with a measured potency or affinity are listed apart.
# Test: antiviral rescue of DENV2-infected BHK-21 cells – cell-based, ATP luminescence, cherry-pick, dose response (AID 687031);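 further: 0% = infected DMSO wells and 100% = uninfected cell wells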
# Settings: BHK-21 DENV2 CPE protection, 5 d; at 19.5 µM (top of the series) unless noted
row,Structure (SMILES),CPE protection (higher = active)
1,Cc1ccc(C2(C)NC(=O)N(CC(=O)Nc3ccccc3C(=O)NC3CCCC3)C2=O)cc1 (stereo not drawn),inactive: -15.6%
2,COCCNC(=O)C1CCC(CNS(=O)(=O)c2ccc(F)cc2)CC1 (stereo not drawn),inactive: -10.5%
3,CC1Cc2ccccc2N1S(=O)(=O)c1cnc(Cl)c(Br)c1 (stereo not drawn),inactive: 10.4%
4,CCCCCc1c(-c2ccccc2OC)ncn1CCc1ccccc1OC,inactive: -45.3%
5,O=C(NCC1CCCCC1)[C@H]1[C@H](CO)[C@H]2Cn3c(cccc3=O)[C@@H]1N2CCc1ccccc1,inactive: 1.51%
6,CC(C)(C(=O)N1CCC1(C)C(=O)Nc1ccccc1Br)c1ccccc1 (stereo not drawn),inactive: -12.7%
7,CCOc1ccc(C(=O)Nc2ccc(CN3CCOCC3)cc2)cc1Cl,inactive: 2.94%
8,CC(=O)N1c2ccc(S(=O)(=O)NCCC(=O)N3CCCC(C)C3)cc2CC1C (stereo not drawn),inactive: -15.9%
9,COc1cccc(NC(=O)CN(C)C(=O)c2cccc(S(=O)(=O)N3c4ccccc4CC3C)c2)c1 (stereo not drawn),inactive: 21%
10,COc1ccc(-c2csc(C(O)c3cccc(OC)c3)n2)cc1 (stereo not drawn),inactive: 1.12%
11,COc1cccc(OCc2cc(C(=O)N(C)CCC3CCCCO3)no2)c1 (stereo not drawn),inactive: -20.7%
12,Cc1cc(Br)ccc1NC(=O)CN(C)C(=O)COc1cccc2c1OC(C)(C)C2,inactive: -3.52%
13,CC(C)(C)C1CCC(=O)N(CCOc2ccccc2)CC1 (stereo not drawn),inactive: -17%
14,O=C(Nc1ccc2ccccc2c1)C(C1CC1)n1c(=O)c(-c2cc3ccccc3[nH]2)nc2ccccc21 (stereo not drawn),inactive: -19.6%
15,COc1cc(C)ccc1OCc1cc(C(=O)NCCN2CCCC(O)C2)no1 (stereo not drawn),inactive: 4.9%
16,CC1(C(=O)NS(=O)(=O)c2ccccc2C(F)(F)F)CCN1C(=O)CCc1ccccc1 (stereo not drawn),inactive: -5.16%
17,Cc1cccc(C)c1NC(=O)C(C)n1c(-c2ccc(=O)[nH]c2)nc2ccccc21 (stereo not drawn),inactive: 6.02%
18,N#C[C@@H]1[C@H](c2ccc(C#Cc3ccccc3F)cc2)[C@H](CO)N1C(=O)C1CCC1,inactive: -5.68%
19,C[C@@H]1CN([C@H](C)CO)C(=O)Cc2cc(NC(=O)C3CC3)ccc2O[C@H]1CN(C)C(=O)Nc1ccccc1,inactive: -0.483% [at 21 µM]
20,CC(C)Oc1ccccc1OC1(C)CCN(Cc2ccc(OC(F)(F)F)cc2)C1 (stereo not drawn),inactive: 17.1%
21,CCCC#Cc1cnc2c(c1)C(=O)N([C@@H](C)CO)C[C@@H](C)[C@H](CN(C)C(=O)c1ccc3c(c1)OCO3)O2,inactive: 14%
22,O=C1Nc2ccccc2C(=O)N(C2CCCC2)C1C(=O)NC1CC1 (stereo not drawn),inactive: -7.26%
23,CC(C)(C)NC(=O)C(c1cccc2ccccc12)n1c(=O)c(-c2ccccc2)nc2ccccc21 (stereo not drawn),inactive: -34.4%

# 3 compounds already listed, sorted by number of heavy atoms, falling.
row,Structure (SMILES),CPE protection (higher = active)
21,CCCC#Cc1cnc2c(c1)C(=O)N([C@@H](C)CO)C[C@@H](C)[C@H](CN(C)C(=O)c1ccc3c(c1)OCO3)O2,inactive: 14%
5,O=C(NCC1CCCCC1)[C@H]1[C@H](CO)[C@H]2Cn3c(cccc3=O)[C@@H]1N2CCc1ccccc1,inactive: 1.51%
2,COCCNC(=O)C1CCC(CNS(=O)(=O)c2ccc(F)cc2)CC1 (stereo not drawn),inactive: -10.5%
